Three molecules from article PMC5983026, “Intraring allostery controls the function and assembly of a hetero-oligomeric class II chaperonin” (The FASEB Journal, 2018) can be followed below.

Numbering of substitutions follows the chain as printed. Numbers in names are those of the source. These are yes or no findings as the source states them, for the method shown. Some entries that bind do so weakly or less than the wild type. Sequences can lack the tags named with a protein.

Common to all, as to experiment: SEC + native gel or EMSA; α (intraloop His6) and β co-expressed in E. coli; complexes purified to homogeneity as in ref. 29; integrity by Superose 6 Increase SEC (main peak ≅950 kDa) and native-PAGE 3–12% (≅1 MDa); subunit composition by Tris-Acetate SDS-PAGE (7%) of the purified proteins; both purified
On the technique in general: Mobility shift assays separate free from complexed probe on a gel.

In assay [1] the target is T1, Thermoplasma acidophilum thermosome α subunit D94A, with intraloop His6-tag (Thermoplasma acidophilum) (UniProt P48424).
T1 sequence: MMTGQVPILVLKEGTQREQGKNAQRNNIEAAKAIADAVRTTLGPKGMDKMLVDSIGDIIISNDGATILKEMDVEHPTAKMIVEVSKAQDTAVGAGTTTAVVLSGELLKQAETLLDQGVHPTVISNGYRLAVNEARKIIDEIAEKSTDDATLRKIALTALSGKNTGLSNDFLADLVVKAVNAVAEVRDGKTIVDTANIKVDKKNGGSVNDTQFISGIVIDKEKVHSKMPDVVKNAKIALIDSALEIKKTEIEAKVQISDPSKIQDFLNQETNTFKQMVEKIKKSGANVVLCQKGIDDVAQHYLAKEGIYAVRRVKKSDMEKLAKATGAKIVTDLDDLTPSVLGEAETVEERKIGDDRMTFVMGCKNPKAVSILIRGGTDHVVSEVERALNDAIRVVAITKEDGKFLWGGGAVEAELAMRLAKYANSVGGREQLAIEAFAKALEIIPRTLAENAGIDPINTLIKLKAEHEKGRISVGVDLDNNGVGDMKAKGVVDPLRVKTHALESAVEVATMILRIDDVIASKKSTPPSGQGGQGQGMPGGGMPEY

The target in assay [2] is T2, Thermoplasma acidophilum thermosome α subunit T157A, with intraloop His6-tag (Thermoplasma acidophilum) (UniProt P48424).
T2 sequence: T1 sequence with A94D, T157A

Assay [3] has as its target T3, Thermoplasma acidophilum thermosome α subunit, wild type, with intraloop His6-tag (Thermoplasma acidophilum) (UniProt P48424).
T3 sequence: T1 sequence with A94D

B1: Thermoplasma acidophilum thermosome β subunit, wild type (protein, UniProt P48425 1-543)
chain: MIAGQPIFILKEGTKRESGKDAMKENIEAAIAISNSVRSSLGPRGMDKMLVDSLGDIVITNDGVTILKEMDVEHPAAKMMVEVSKTQDSFVGDGTTTAVIIAGGLLQQAQGLINQNVHPTVISEGYRMASEEAKRVIDEISTKIGADEKALLLKMAQTSLNSKSASVAKDKLAEISYEAVKSVAELRDGKYYVDFDNIQVVKKQGGAIDDTQLINGIIVDKEKVHPGMPDVVKDAKIALLDAPLEIKKPEFDTNLRIEDPSMIQKFLAQEENMLREMVDKIKSVGANVVITQKGIDDMAQHYLSRAGIYAVRRVKKSDMDKLAKATGASIVSTIDEISSSDLGTAERVEQVKVGEDYMTFVTGCKNPKAVSILVRGETEHVVDEMERSITDSLHVVASALEDGAYAAGGGATAAEIAFRLRSYAQKIGGRQQLAIEKFADAIEEIPRALAENAGLDPIDILLKLRAEHAKGNKTYGINVFTGEIEDMVKNGVIEPIRVGKQAIESATEAAIMILRIDDVIATKSSSSSSNPPKSGSSSESSED
As to B1, the binding entry in assay [1], in assay [2] and in assay [3] was “binds” in each case.

B2: Thermoplasma acidophilum thermosome β subunit D93K (protein, UniProt P48425 1-543)
chain: B1 chain with D93K
Turning to B2, the binding entry in assay [3] was “binds”.

B3: Thermoplasma acidophilum thermosome β subunit T158A (protein, UniProt P48425 1-543)
chain: B1 chain with T158A
For the molecule B3, the binding result in assay [3] is given as “binds”.
